According to the supplement of paper PMC6418307:
Single values of this set are uncertain.

Test system: primary mouse cortical neurons
Test: cell health score (luciferase spike-in reads / total reads per well) (fraction); higher = fewer cellular reads, worse cell health / toxicity
Settings: treatment time 24 h
[1] = 0.01 µM, sex of neuron culture: Female
[2] = 0.01 µM, sex of neuron culture: Male
[3] = 0.1 µM, sex of neuron culture: Female
[4] = 0.1 µM, sex of neuron culture: Male
[5] = 1 µM, sex of neuron culture: Female
[6] = 1 µM, sex of neuron culture: Male
[7] = 10 µM, sex of neuron culture: Female
[8] = 10 µM, sex of neuron culture: Male

| SMILES | cell health score [1] | cell health score [2] | cell health score [3] | cell health score [4] | cell health score [5] | cell health score [6] | cell health score [7] | cell health score [8] |
| --- | --- | --- | --- | --- | --- | --- | --- | --- |
| CCC(C)OC(=O)N1CCCCC1CCO (stereo not drawn) [Icaridin] | 0.000494 | 0.000937 | 0.000804 | 0.000662 | 0.000548 | 0.000418 | 0.000904 | 0.00059 |
| Oc1ccc([C@H]2COc3cc(O)ccc3C2)cc1 [Equol] | 0.00066 | 0.000748 | 0.00102 | 0.000979 | 0.000836 | 0.000906 | 0.000659 | 0.000841 |
| FC(F)C(F)(F)OCC(Cn1cncn1)c1ccc(Cl)cc1Cl (stereo not drawn) [Tetraconazole] | 0.0006 | 0.00101 | 0.00126 | 0.00117 | 0.000994 | 0.00091 | 0.00111 | 0.000951 |
| CNC(=S)S [Metam-sodium hydrate] | 0.000614 | 0.00115 | 0.00079 | 0.000766 | 0.00132 | 0.000703 | 0.00101 | 0.000412 |
| N#CSCSC#N [Methylene bis(thiocyanate)] | 0.000611 | 0.00107 | 0.000695 | 0.000719 | 0.000944 | 0.000463 | 0.000917 | 0.000471 |
| COP(=S)(OC)Oc1ccc([N+](=O)[O-])cc1 [Methyl parathion] | 0.000693 | 0.000898 | 0.000886 | 0.000752 | 0.000687 | 0.000589 | 0.000948 | 0.000531 |
| N#Cc1c(Cl)c(Cl)c(Cl)c(C#N)c1Cl [Chlorothalonil] | 0.000502 | 0.000864 | 0.000884 | 0.000881 | 0.00117 | 0.000728 | 0.00396 | 0.00241 |
| C=CCOC(Cn1ccnc1)c1ccc(Cl)cc1Cl (stereo not drawn) [Imazalil] | 0.000376 | 0.000811 | 0.000985 | 0.0012 | 0.00078 | 0.000618 | 0.00197 | 0.00051 |
| O=C(Nc1ccc([N+](=O)[O-])cc1Cl)c1cc(Cl)ccc1O [Niclosamide] | 0.000548 | 0.00118 | 0.000764 | 0.0014 | 0.000657 | 0.00103 | 0.00302 | 0.0086 |
| CCCCN(CC)c1c([N+](=O)[O-])cc(C(F)(F)F)cc1[N+](=O)[O-] [Benfluralin] | 0.000492 | 0.000785 | 0.00134 | 0.00106 | 0.000731 | 0.000774 | 0.00129 | 0.000441 |
| O=C(O)c1nc(Cl)ccc1Cl [Clopyralid] | 0.000511 | 0.00104 | 0.00197 | 0.000731 | 0.000739 | 0.00066 | 0.00117 | 0.00069 |
| CN/C(=N\[N+](=O)[O-])NCc1cnc(Cl)s1 [Clothianidin] | 0.00144 | 0.000882 | 0.00118 | 0.000751 | 0.00107 | 0.000999 | 0.00101 | 0.000576 |
| C[C@]12CC[C@@H]3c4ccc(O)cc4CC[C@H]3[C@@H]1CC[C@@H]2O [17-beta-estradiol] | 0.000793 | 0.000616 | 0.00132 | 0.00106 | 0.000776 | 0.000936 | 0.00107 | 0.000422 |
| O=[N+]([O-])c1cc2nc(O)c(O)nc2cc1[N+](=O)[O-] [DNQX] | 0.000552 | 0.000753 | 0.00135 | 0.000937 | 0.00113 | 0.000404 | 0.00124 | 0.00332 |
| CCOC(=O)CC(SP(=S)(OC)OC)C(=O)OCC (stereo not drawn) [Malathion] | 0.000601 | 0.000753 | 0.000613 | 0.000687 | 0.000992 | 0.000386 | 0.000894 | 0.000469 |
| O=C(O)COc1ccc(Cl)cc1Cl [2,4-Dichlorophenoxyacetic acid] | 0.000508 | 0.000827 | 0.000729 | 0.000963 | 0.000666 | 0.000427 | 0.00116 | 0.00054 |
| CCOP(=S)(OCC)SCn1c(=O)oc2cc(Cl)ccc21 [Phosalone] | 0.000664 | 0.000791 | 0.000682 | 0.000814 | 0.000976 | 0.000715 | 0.00109 | 0.00062 |
| CC(C)=CC1C(C(=O)OCN2C(=O)C3=C(CCCC3)C2=O)C1(C)C (stereo not drawn) [Tetramethrin] | 0.000331 | 0.00128 | 0.000815 | 0.000723 | 0.000656 | 0.000571 | 0.000728 | 0.000695 |
| N#C/N=C1\SCCN1Cc1ccc(Cl)nc1 [Thiacloprid] | 0.000919 | 0.000734 | 0.000574 | 0.00085 | 0.00113 | 0.000591 | 0.00136 | 0.000608 |
| CCOP(=O)(OCC)Oc1cc(C)nc(C(C)C)n1 [Diazoxon] | 0.000701 | 0.000691 | 0.000898 | 0.00118 | 0.000964 | 0.000855 | 0.00128 | 0.000799 |
| C=C(C)[C@H]1Cc2c(ccc3c2O[C@@H]2COc4cc(OC)c(OC)cc4[C@@H]2C3=O)O1 [Rotenone] | 0.0133 | 0.0132 | 0.0194 | 0.0182 | 0.0192 | 0.0116 | 0.0165 | 0.00947 |
| S=C([S-])NCCNC(=S)[S-].[Mn+2] [Maneb] | 0.000607 | 0.000578 | 0.000687 | 0.000834 | 0.000699 | 0.00111 | 0.000992 | 0.000882 |
| CS(=O)(=O)c1ccc(C(=O)C2C(=O)CCCC2=O)c([N+](=O)[O-])c1 [Mesotrione] | 0.00082 | 0.000851 | 0.00148 | 0.00107 | 0.000695 | 0.000655 | 0.00115 | 0.000508 |
| CCc1cccc(CC)c1N(COC)C(=O)CCl [Alachlor] | 0.000518 | 0.00107 | 0.000487 | 0.00063 | 0.000828 | 0.000815 | 0.00116 | 0.00179 |
| CCCCOC(=O)C(C)Oc1ccc(Oc2ccc(C(F)(F)F)cn2)cc1 (stereo not drawn) [Fluazifop-butyl] | 0.000463 | 0.000964 | 0.000831 | 0.000866 | 0.000806 | 0.000438 | 0.00124 | 0.00226 |
| N#CC(CCc1ccc(Cl)cc1)(Cn1cncn1)c1ccccc1 (stereo not drawn) [Fenbuconazole] | 0.000443 | 0.000752 | 0.000761 | 0.000729 | 0.00104 | 0.00097 | 0.000905 | 0.000898 |

Part of the list above, showing only cell health score [1]:
SMILES,cell health score [1]
"O=C(O)COc1ccc(Cl)cc1Cl [2,4-Dichlorophenoxyacetic acid]",0.000508
CCOP(=S)(OCC)SCn1c(=O)oc2cc(Cl)ccc21 [Phosalone],0.000664
